Results are given in words; binding and its absence hold for the method and conditions named. For some of these results: Binding seen in cells or lysates may run through a third protein. Some entries that bind do so weakly or less than the wild type. For some of these results: Where a sequence is shown, tags or fusion partners need not be part of it.

Chains of the proteins cited; added tags and fusions are not shown.
UniProt Q8IY92: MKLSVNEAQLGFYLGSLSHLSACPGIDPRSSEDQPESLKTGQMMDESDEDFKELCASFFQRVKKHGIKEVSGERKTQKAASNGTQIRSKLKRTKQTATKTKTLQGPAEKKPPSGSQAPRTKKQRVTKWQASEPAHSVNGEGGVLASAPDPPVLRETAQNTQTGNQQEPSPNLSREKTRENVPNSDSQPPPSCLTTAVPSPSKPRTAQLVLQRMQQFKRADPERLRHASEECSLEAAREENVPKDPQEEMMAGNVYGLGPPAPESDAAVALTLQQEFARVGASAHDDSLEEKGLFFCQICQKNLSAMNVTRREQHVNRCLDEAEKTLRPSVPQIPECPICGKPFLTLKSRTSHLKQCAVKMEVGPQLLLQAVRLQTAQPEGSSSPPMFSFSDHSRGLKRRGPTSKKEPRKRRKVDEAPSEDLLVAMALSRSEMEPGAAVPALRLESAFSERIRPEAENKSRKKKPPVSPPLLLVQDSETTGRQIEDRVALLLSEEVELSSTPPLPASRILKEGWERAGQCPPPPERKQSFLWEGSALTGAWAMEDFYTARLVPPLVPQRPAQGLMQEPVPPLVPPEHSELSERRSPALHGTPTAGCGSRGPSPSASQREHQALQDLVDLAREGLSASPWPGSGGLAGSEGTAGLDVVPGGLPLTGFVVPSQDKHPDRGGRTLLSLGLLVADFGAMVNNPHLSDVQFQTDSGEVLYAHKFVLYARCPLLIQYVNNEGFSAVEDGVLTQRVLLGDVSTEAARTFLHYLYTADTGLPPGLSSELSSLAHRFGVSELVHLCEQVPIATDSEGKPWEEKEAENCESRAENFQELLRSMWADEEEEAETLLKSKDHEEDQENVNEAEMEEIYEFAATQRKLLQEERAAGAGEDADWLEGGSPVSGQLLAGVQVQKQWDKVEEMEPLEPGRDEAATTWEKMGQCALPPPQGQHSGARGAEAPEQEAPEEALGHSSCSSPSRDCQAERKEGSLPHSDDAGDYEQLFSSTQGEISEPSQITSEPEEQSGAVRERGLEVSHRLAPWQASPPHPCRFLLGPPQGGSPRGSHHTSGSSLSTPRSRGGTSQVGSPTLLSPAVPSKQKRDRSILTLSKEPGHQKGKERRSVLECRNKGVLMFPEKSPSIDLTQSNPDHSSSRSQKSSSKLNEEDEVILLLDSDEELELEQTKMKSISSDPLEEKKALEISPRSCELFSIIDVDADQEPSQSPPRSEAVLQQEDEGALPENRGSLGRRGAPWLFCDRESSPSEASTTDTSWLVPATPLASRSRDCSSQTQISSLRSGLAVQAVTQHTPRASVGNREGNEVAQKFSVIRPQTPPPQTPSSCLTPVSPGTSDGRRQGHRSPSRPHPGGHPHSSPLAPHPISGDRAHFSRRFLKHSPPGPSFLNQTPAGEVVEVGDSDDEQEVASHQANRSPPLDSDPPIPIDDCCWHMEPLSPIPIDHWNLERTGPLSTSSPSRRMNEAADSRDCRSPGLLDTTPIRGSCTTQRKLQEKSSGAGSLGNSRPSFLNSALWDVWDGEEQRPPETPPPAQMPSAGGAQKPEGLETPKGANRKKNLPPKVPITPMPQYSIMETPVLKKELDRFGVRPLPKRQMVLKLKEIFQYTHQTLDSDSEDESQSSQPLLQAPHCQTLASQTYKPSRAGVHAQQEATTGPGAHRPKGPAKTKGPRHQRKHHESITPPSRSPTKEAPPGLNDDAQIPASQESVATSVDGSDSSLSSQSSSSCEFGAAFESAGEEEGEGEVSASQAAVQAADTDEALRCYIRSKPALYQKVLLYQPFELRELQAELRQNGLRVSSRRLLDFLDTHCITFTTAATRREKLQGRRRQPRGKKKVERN

Experiment [1] deals with _(FLAG)SLX4 (human) (UniProt Q8IY92). The experiment in a line: co-IP + co-sedimentation; _(FLAG)SLX4 precipitated on anti-FLAG M2 agarose from extracts of G2/M-phase cells, eluted with 3x FLAG peptide, then run on a 10%-45% sucrose gradient; fractions blotted.
For experiment [2] the target is unchanged. Put plainly: co-sedimentation; 10%-45% sucrose gradients of whole-cell extracts of Flp-In T-REx 293 cells expressing _(FLAG)SLX4, synchronized at G1/S (double thymidine) or G2/M (thymidine, then nocodazole); SG buffer 25 mM Tris-HCl pH 8.0, 150 mM NaCl, 4°C; fractions blotted.
The target in experiment [3] is _(STREP)SLX4 (human) (UniProt Q8IY92). The experiment in a line: three-step affinity co-purification; SMX from Hi5 cells co-infected with SM and XPF-ERCC1 baculoviruses; anti-FLAG M2 agarose, HisTRAP HP, StrepTactin Macroprep; 500 mM NaCl; SDS-PAGE.
Experiment [4] shares this target. Put plainly: tandem affinity co-purification; SM from Hi5 cells infected with one baculovirus; StrepTactin Superflow, anti-FLAG M2 agarose, HiTRAP SP HP; 500 mM NaCl in the affinity steps.

B1: ERCC1 (protein, UniProt P07992 1-297)
chain: MDPGKDKEGVPQPSGPPARKKFVIPLDEDEVPPGVAKPLFRSTQSLPTVDTSAQAAPQTYAEYAISQPLEGAGATCPTGSEPLAGETPNQALKPGAKSNSIIVSPRQRGNPVLKFVRNVPWEFGDVIPDYVLGQSTCALFLSLRYHNLHPDYIHGRLQSLGKNFALRVLLVQVDVKDPQQALKELAKMCILADCTLILAWSPEEAGRYLETYKAYEQKPADLLMEKLEQDFVSRVTECLTTVKSVNKTDSQTLLTTFGSLEQLIAASREDLALCPGLGPQKARRLFDVLHEPFLKVP
With B1, the binding entry in experiment [1] and in experiment [2] was “binds” throughout.

B2: _(His6)ERCC1 (protein, UniProt P07992 1-297)
chain: MDPGKDKEGVPQPSGPPARKKFVIPLDEDEVPPGVAKPLFRSTQSLPTVDTSAQAAPQTYAEYAISQPLEGAGATCPTGSEPLAGETPNQALKPGAKSNSIIVSPRQRGNPVLKFVRNVPWEFGDVIPDYVLGQSTCALFLSLRYHNLHPDYIHGRLQSLGKNFALRVLLVQVDVKDPQQALKELAKMCILADCTLILAWSPEEAGRYLETYKAYEQKPADLLMEKLEQDFVSRVTECLTTVKSVNKTDSQTLLTTFGSLEQLIAASREDLALCPGLGPQKARRLFDVLHEPFLKVP
For B2, the binding entry in experiment [3] is on record as “binds”.

B3: SLX1 (protein, UniProt Q9BQ83 1-275)
chain: MGPAGVAARPGRFFGVYLLYCLNPRYRGRVYVGFTVNTARRVQQHNGGRKKGGAWRTSGRGPWEMVLVVHGFPSSVAALRFEWAWQHPHASRRLAHVGPRLRGETAFAFHLRVLAHMLRAPPWARLPLTLRWVRPDLRQDLCLPPPPHVPLAFGPPPPQAPAPRRRAGPFDDAEPEPDQGDPGACCSLCAQTIQDEEGPLCCPHPGCLLRAHVICLAEEFLQEEPGQLLPLEGQCPCCEKSLLWGDLIWLCQMDTEKEVEDSELEEAHWTDLLET
Turning to B3, the binding entry in experiment [1] and in experiment [2] was “binds” in each case.

B4: V5SLX1 (protein, UniProt Q9BQ83 1-275)
chain: MGPAGVAARPGRFFGVYLLYCLNPRYRGRVYVGFTVNTARRVQQHNGGRKKGGAWRTSGRGPWEMVLVVHGFPSSVAALRFEWAWQHPHASRRLAHVGPRLRGETAFAFHLRVLAHMLRAPPWARLPLTLRWVRPDLRQDLCLPPPPHVPLAFGPPPPQAPAPRRRAGPFDDAEPEPDQGDPGACCSLCAQTIQDEEGPLCCPHPGCLLRAHVICLAEEFLQEEPGQLLPLEGQCPCCEKSLLWGDLIWLCQMDTEKEVEDSELEEAHWTDLLET
Turning to B4, the binding entry in experiment [3] and in experiment [4] was “binds” throughout.

B5: XPF (protein, UniProt Q92889 1-916)
chain: MESGQPARRIAMAPLLEYERQLVLELLDTDGLVVCARGLGADRLLYHFLQLHCHPACLVLVLNTQPAEEEYFINQLKIEGVEHLPRRVTNEITSNSRYEVYTQGGVIFATSRILVVDFLTDRIPSDLITGILVYRAHRIIESCQEAFILRLFRQKNKRGFIKAFTDNAVAFDTGFCHVERVMRNLFVRKLYLWPRFHVAVNSFLEQHKPEVVEIHVSMTPTMLAIQTAILDILNACLKELKCHNPSLEVEDLSLENAIGKPFDKTIRHYLDPLWHQLGAKTKSLVQDLKILRTLLQYLSQYDCVTFLNLLESLRATEKAFGQNSGWLFLDSSTSMFINARARVYHLPDAKMSKKEKISEKMEIKEGEETKKELVLESNPKWEALTEVLKEIEAENKESEALGGPGQVLICASDDRTCSQLRDYITLGAEAFLLRLYRKTFEKDSKAEEVWMKFRKEDSSKRIRKSHKRPKDPQNKERASTKERTLKKKKRKLTLTQMVGKPEELEEEGDVEEGYRREISSSPESCPEEIKHEEFDVNLSSDAAFGILKEPLTIIHPLLGCSDPYALTRVLHEVEPRYVVLYDAELTFVRQLEIYRASRPGKPLRVYFLIYGGSTEEQRYLTALRKEKEAFEKLIREKASMVVPEEREGRDETNLDLVRGTASADVSTDTRKAGGQEQNGTQQSIVVDMREFRSELPSLIHRRGIDIEPVTLEVGDYILTPEMCVERKSISDLIGSLNNGRLYSQCISMSRYYKRPVLLIEFDPSKPFSLTSRGALFQEISSNDISSKLTLLTLHFPRLRILWCPSPHATAELFEELKQSKPQPDAATALAITADSETLPESEKYNPGPQDFLLKMPGVNAKNCRSLMHHVKNIAELAALSQDELTSILGNAANAKQLYDFIHTSFAEVVSKGKGKK
Consider B5, for which the binding entry in experiment [3], in experiment [1] and in experiment [2] was “binds” in each case.

B6: XPF^D705A (protein, UniProt Q92889 1-916)
chain: MESGQPARRIAMAPLLEYERQLVLELLDTDGLVVCARGLGADRLLYHFLQLHCHPACLVLVLNTQPAEEEYFINQLKIEGVEHLPRRVTNEITSNSRYEVYTQGGVIFATSRILVVDFLTDRIPSDLITGILVYRAHRIIESCQEAFILRLFRQKNKRGFIKAFTDNAVAFDTGFCHVERVMRNLFVRKLYLWPRFHVAVNSFLEQHKPEVVEIHVSMTPTMLAIQTAILDILNACLKELKCHNPSLEVEDLSLENAIGKPFDKTIRHYLDPLWHQLGAKTKSLVQDLKILRTLLQYLSQYDCVTFLNLLESLRATEKAFGQNSGWLFLDSSTSMFINARARVYHLPDAKMSKKEKISEKMEIKEGEETKKELVLESNPKWEALTEVLKEIEAENKESEALGGPGQVLICASDDRTCSQLRDYITLGAEAFLLRLYRKTFEKDSKAEEVWMKFRKEDSSKRIRKSHKRPKDPQNKERASTKERTLKKKKRKLTLTQMVGKPEELEEEGDVEEGYRREISSSPESCPEEIKHEEFDVNLSSDAAFGILKEPLTIIHPLLGCSDPYALTRVLHEVEPRYVVLYDAELTFVRQLEIYRASRPGKPLRVYFLIYGGSTEEQRYLTALRKEKEAFEKLIREKASMVVPEEREGRDETNLDLVRGTASADVSTDTRKAGGQEQNGTQQSIVVDMREFRSELPSLIHRRGIAIEPVTLEVGDYILTPEMCVERKSISDLIGSLNNGRLYSQCISMSRYYKRPVLLIEFDPSKPFSLTSRGALFQEISSNDISSKLTLLTLHFPRLRILWCPSPHATAELFEELKQSKPQPDAATALAITADSETLPESEKYNPGPQDFLLKMPGVNAKNCRSLMHHVKNIAELAALSQDELTSILGNAANAKQLYDFIHTSFAEVVSKGKGKK
As for B6, in experiment [3], the binding result is recorded as “binds”.

B7: EME1 (protein, UniProt Q96AY2 1-570)
chain: MALKKSSPSLDSGDSDSEELPTFAFLKKEPSSTKRRQPEREEKIVVVDISDCEASCPPAPELFSPPVPEIAETVTQTQPVRLLSSESEDEEEFIPLAQRLTCKFLTHKQLSPEDSSSPVKSVLDHQNNEGASCDWKKPFPKIPEVPLHDTPERSAADNKDLILDPCCQLPAYLSTCPGQSSSLAVTKTNSDILPPQKKTKPSQKVQGRGSHGCRQQRQARQKESTLRRQERKNAALVTRMKAQRPEECLKHIIVVLDPVLLQMEGGGQLLGALQTMECRCVIEAQAVPCSVTWRRRAGPSEDREDWVEEPTVLVLLRAEAFVSMIDNGKQGSLDSTMKGKETLQGFVTDITAKTAGKALSLVIVDQEKCFSAQNPPRRGKQGANKQTKKQQQRQPEASIGSMVSRVDAEEALVDLQLHTEAQAQIVQSWKELADFTCAFTKAVAEAPFKKLRDETTFSFCLESDWAGGVKVDLAGRGLALVWRRQIQQLNRVSLEMASAVVNAYPSPQLLVQAYQQCFSDKERQNLLADIQVRRGEGVTSTSRRIGPELSRRIYLQMTTLQPHLSLDSAD
Take B7: the binding result in experiment [1] and in experiment [2] was “binds” each time.

The values above are taken from article PMC5344696.
